# According to the supplement of paper PMC7666118:
# By UniProt entry, the sequences of proteins in these tests, tags left out. Where a name states a change or a piece, a line headed by the entry shows the natural chain unless it says otherwise.
# UniProt Q86UB9: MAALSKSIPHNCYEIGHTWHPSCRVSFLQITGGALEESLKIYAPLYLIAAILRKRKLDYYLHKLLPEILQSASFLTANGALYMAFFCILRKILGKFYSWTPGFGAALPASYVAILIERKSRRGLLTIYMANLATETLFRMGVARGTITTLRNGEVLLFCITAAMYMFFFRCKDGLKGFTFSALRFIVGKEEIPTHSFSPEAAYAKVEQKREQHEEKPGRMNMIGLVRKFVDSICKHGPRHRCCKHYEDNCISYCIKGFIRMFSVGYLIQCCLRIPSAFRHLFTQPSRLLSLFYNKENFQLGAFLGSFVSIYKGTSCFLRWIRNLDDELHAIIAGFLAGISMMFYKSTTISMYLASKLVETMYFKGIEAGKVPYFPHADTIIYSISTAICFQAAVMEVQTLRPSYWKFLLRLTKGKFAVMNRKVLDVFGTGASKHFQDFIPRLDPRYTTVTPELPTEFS
# UniProt Q8IU68: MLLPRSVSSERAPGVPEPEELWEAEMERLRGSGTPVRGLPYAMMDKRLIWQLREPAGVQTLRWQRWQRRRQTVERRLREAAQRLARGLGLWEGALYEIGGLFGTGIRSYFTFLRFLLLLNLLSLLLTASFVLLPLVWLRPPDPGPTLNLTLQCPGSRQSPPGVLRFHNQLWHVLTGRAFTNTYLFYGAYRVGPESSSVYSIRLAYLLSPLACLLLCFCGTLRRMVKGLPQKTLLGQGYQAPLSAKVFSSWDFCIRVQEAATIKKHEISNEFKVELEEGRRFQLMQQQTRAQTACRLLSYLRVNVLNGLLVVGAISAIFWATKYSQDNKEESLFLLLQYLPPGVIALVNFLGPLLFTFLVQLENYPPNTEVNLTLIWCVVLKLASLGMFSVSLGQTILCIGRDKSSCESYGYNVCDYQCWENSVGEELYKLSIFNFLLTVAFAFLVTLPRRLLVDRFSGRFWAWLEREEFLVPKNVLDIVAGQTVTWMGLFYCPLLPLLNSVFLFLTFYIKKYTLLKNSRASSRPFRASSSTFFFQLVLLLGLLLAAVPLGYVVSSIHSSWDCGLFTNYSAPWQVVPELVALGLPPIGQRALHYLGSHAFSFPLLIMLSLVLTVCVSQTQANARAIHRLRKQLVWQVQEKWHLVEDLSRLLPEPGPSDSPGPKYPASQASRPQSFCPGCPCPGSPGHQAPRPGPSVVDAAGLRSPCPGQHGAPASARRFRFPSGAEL
# UniProt Q9NZR1: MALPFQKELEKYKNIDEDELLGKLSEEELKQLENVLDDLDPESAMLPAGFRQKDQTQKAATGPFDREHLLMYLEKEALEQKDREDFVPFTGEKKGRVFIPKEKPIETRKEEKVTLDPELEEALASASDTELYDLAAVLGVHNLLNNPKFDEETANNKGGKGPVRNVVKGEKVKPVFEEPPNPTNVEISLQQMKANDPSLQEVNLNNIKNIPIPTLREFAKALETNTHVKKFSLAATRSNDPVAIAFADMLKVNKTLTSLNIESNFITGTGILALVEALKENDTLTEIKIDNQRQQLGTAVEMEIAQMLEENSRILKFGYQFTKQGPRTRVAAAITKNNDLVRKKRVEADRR
# UniProt P12270, whole entry: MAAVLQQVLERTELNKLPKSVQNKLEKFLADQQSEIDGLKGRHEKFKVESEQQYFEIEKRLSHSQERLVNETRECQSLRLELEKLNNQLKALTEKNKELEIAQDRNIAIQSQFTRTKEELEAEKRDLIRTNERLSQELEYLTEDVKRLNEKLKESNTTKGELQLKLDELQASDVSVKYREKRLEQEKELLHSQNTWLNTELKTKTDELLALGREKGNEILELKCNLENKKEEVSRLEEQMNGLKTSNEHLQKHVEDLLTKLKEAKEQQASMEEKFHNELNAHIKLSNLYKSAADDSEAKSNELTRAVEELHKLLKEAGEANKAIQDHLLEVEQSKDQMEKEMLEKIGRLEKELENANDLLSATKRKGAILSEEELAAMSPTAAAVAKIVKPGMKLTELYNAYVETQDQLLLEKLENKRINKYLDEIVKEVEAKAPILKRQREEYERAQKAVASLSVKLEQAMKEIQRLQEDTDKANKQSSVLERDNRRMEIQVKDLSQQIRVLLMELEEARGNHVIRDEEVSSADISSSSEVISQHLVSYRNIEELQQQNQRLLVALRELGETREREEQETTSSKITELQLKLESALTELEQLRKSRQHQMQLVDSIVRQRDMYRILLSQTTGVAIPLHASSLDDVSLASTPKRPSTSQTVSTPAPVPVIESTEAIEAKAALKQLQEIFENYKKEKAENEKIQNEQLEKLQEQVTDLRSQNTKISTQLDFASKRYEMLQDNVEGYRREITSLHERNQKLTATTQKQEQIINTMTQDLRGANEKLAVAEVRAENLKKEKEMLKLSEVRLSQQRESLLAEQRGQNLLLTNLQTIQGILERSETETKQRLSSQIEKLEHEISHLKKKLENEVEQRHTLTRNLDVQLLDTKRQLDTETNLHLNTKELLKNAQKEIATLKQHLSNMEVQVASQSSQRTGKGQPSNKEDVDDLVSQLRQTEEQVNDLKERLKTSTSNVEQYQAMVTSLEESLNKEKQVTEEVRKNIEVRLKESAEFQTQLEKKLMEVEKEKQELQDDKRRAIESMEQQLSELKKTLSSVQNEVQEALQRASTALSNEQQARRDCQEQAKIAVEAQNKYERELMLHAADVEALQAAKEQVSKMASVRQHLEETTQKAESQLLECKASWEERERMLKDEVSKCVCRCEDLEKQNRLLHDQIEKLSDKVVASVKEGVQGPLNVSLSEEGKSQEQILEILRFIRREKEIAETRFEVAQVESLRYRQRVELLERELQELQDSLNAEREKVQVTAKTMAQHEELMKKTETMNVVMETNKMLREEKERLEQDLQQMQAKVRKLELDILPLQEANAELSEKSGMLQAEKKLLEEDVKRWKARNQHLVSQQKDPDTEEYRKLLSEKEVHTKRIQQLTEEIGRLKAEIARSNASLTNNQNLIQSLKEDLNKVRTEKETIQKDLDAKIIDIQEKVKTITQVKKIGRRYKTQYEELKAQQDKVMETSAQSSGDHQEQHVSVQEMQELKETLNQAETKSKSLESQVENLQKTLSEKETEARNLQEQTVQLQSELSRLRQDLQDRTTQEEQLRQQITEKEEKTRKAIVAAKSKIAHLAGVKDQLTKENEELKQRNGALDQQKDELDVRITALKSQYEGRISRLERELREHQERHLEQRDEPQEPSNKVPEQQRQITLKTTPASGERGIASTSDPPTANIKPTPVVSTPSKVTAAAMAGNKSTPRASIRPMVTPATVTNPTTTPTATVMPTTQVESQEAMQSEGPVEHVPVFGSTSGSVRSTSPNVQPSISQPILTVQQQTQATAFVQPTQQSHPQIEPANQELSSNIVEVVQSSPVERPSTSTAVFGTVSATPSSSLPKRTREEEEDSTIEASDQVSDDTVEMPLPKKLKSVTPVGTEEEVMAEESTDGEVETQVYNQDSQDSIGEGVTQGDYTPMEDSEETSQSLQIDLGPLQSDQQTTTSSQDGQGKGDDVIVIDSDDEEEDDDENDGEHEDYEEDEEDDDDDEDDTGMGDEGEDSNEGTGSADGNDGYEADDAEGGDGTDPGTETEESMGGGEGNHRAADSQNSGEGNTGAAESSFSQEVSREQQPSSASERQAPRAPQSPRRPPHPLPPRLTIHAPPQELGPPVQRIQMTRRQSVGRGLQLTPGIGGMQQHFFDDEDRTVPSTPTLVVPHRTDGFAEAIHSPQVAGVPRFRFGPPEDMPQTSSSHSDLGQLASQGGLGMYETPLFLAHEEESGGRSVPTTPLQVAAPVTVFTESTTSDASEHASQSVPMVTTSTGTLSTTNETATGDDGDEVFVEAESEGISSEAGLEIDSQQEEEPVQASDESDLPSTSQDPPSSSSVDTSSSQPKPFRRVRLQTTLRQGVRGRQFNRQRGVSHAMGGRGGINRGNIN
# UniProt Q5SNT2: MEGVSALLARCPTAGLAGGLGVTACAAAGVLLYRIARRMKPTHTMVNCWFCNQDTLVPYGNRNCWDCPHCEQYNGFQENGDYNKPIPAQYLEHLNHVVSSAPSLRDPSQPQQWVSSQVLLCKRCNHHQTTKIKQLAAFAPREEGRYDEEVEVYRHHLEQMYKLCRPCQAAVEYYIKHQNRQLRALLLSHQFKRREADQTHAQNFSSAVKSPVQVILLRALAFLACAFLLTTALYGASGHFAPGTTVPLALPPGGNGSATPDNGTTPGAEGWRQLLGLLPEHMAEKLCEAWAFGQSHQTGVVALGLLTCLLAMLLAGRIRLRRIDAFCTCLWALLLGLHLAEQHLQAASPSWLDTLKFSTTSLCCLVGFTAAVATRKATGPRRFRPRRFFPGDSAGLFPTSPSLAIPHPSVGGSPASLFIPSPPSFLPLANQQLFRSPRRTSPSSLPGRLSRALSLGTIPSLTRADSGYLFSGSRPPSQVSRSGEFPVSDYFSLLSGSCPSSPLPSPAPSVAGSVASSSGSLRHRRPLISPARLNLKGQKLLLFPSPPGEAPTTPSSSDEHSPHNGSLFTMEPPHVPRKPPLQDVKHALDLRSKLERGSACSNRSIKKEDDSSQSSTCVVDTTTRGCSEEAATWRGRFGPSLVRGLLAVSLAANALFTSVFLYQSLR
# UniProt Q9NUM4, whole entry: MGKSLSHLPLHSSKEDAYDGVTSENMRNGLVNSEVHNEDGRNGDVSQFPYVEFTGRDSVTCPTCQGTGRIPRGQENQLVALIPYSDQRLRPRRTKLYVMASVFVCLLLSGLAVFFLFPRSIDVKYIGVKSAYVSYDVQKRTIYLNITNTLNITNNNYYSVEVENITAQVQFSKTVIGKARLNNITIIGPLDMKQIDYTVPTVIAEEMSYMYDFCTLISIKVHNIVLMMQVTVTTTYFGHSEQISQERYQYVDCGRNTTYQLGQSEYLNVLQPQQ
# UniProt Q9P0T7: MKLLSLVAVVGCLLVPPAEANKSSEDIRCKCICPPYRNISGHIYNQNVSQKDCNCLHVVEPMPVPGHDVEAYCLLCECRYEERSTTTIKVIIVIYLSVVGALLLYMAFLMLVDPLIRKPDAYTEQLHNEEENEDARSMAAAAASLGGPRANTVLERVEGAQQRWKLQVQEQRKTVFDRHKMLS
# UniProt O95379: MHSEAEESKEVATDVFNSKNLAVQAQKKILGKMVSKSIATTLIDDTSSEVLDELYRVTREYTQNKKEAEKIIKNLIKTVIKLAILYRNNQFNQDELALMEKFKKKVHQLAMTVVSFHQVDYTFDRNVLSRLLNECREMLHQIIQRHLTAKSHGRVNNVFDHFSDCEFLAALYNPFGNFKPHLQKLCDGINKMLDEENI
# UniProt Q8IYM9: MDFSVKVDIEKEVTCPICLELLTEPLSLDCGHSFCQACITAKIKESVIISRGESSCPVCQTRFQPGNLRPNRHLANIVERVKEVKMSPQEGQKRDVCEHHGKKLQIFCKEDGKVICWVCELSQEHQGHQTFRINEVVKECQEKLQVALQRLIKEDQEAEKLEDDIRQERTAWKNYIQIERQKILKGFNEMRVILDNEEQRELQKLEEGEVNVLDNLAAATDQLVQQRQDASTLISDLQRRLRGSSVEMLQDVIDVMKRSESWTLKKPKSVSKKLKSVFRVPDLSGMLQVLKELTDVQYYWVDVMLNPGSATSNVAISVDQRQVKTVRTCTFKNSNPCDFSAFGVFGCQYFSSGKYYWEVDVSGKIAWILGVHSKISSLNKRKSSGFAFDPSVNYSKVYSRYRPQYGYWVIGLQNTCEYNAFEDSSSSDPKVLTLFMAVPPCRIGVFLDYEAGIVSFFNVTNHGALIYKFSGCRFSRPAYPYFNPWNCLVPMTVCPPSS
# UniProt P52888, whole entry: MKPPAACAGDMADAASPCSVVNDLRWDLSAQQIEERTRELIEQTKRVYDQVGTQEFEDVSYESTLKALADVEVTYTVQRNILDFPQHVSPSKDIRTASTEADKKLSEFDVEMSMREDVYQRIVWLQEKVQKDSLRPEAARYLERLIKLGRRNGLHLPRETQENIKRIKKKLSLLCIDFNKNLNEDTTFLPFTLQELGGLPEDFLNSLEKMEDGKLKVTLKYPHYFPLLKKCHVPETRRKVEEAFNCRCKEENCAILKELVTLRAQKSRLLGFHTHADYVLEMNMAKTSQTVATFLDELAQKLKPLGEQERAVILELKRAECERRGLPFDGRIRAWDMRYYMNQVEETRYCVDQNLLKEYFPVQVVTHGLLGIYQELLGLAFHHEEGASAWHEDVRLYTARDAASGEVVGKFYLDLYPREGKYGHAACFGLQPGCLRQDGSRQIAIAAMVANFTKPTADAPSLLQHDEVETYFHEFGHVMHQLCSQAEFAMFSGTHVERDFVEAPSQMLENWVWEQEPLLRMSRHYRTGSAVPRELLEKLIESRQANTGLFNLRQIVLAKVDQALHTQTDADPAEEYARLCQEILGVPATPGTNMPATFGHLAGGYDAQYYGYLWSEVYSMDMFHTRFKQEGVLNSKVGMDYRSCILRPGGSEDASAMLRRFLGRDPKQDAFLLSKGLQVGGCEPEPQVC
# UniProt P13693: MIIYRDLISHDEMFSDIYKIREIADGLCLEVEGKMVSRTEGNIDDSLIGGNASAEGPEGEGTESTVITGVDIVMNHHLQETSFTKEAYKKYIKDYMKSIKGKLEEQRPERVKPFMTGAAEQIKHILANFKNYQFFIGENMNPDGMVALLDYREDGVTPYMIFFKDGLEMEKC
# The other results are listed elsewhere or left out.
# Compound: COc1ccc(Cn2ccc3cc(C)c(C(=O)NO)cc32)cc1
# Test: dose-dependent thermal stabilisation call (2D-TPP, DLPTP, 10% FDR) (binary (1 = stabilised)); higher = stabilised by the compound
# Conditions: system: HL-60 intact cells; concentration range 0.04-10 µM
# Description: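 2D thermal proteome profiling in intact HL-60 cells treated with BRD-3811 (0, 0.04, 0.29, 2, 10 uM) for 90 min at 37 C, then heated 3 min at one of 12 temperatures (42-63.9 C). Soluble protein was quantified by TMT10 MS. The value is the DLPTP call of the paper: dose-dependent thermal stabilisation over all temperatures at 10% FDR (F-test of a dose-response against a flat model); one experiment, one call per tested protein.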
row,Target,dose-dependent thermal stabilisation call
1,TOMM22 (UniProt Q9NS69),inactive: 0
2,TIMM13 (UniProt Q9Y5L4),active: 1
3,TMEM135 (UniProt Q86UB9),inactive: 0
4,TMC8 (UniProt Q8IU68),inactive: 0
5,TMEM168 (UniProt Q9H0V1),inactive: 0
6,TSPAN14 (UniProt Q8NG11),inactive: 0
7,TMPO,inactive: 0
8,TROVE2 (UniProt P10155),inactive: 0
9,TMOD2 (UniProt Q9NZR1),inactive: 0
10,TRMU (UniProt O75648),inactive: 0
11,TRAPPC1 (UniProt Q9Y5R8),inactive: 0
12,TPR (UniProt P12270),inactive: 0
13,TRMT1 (UniProt Q9NXH9),inactive: 0
14,TMEM201 (UniProt Q5SNT2),inactive: 0
15,TRAPPC2L (UniProt Q9UL33),inactive: 0
16,TOLLIP (UniProt Q9H0E2),inactive: 0
17,TK1 (UniProt P04183),inactive: 0
18,TMLHE (UniProt Q9NVH6),inactive: 0
19,TMEM106B (UniProt Q9NUM4),inactive: 0
20,TMED4 (UniProt Q7Z7H5),inactive: 0

# Reprinted at random: 2 records from the list.
row,Target,dose-dependent thermal stabilisation call
8,TROVE2 (UniProt P10155),inactive: 0
14,TMEM201 (UniProt Q5SNT2),inactive: 0

# Next records:

row,Target,dose-dependent thermal stabilisation call
1,TRIAP1 (UniProt O43715),inactive: 0
2,TMEM63A (UniProt O94886),inactive: 0
3,THOC3 (UniProt Q96J01),inactive: 0
4,TMEM9 (UniProt Q9P0T7),inactive: 0
5,TSPAN4 (UniProt O14817),inactive: 0
6,TOR2A,inactive: 0
7,TMED3 (UniProt Q9Y3Q3),inactive: 0
8,TNFAIP8 (UniProt O95379),inactive: 0
9,TRPV2 (UniProt Q9Y5S1),inactive: 0
10,TMEM102 (UniProt Q8N9M5),inactive: 0
11,TRIM22 (UniProt Q8IYM9),inactive: 0
12,THOP1 (UniProt P52888),inactive: 0
13,TMEM179B (UniProt Q7Z7N9),inactive: 0
14,TST (UniProt Q16762),inactive: 0
15,TPT1 (UniProt P13693),inactive: 0
16,TIMP1 (UniProt P01033),inactive: 0
17,TRIO (UniProt O75962),inactive: 0
18,TOMM40L (UniProt Q969M1),inactive: 0
19,THUMPD1 (UniProt Q9NXG2),inactive: 0
20,TLN1 (UniProt Q9Y490),inactive: 0
